The results in this text go back to article PMC10888616, “Pleiotropic Effects of PhaR Regulator in Bradyrhizobium diazoefficiens Microaerobic Metabolism”.

For at least one entry, the source does not settle the construct or the ends of the probe. The comparison behind a weaker result is the experiment's own reference, which may not be listed here. Protein sequences can lack the tags named with them.

The target in this series is T1, PhaR (Bradyrhizobium diazoefficiens USDA 110) (UniProt Q89XT0).
T1 sequence (looked up, limits assumed): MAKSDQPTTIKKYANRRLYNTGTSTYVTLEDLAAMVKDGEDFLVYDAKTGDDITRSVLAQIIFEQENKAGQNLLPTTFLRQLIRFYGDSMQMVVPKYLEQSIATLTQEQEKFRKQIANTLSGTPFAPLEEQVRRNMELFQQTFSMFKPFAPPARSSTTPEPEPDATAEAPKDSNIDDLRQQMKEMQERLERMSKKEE
Put plainly: EMSA. As to conditions: mIVT buffer: 40 mM Tris-HCl pH 7.0, 150 mM KCl, 0.1 mM EDTA, 0.1 mM DTT, 10 uL, 2 ng DNA, 0-2 uM PhaR, 30 min room temperature, 6% native PAGE 0.5X TBE, SYBR Gold, recombinant protein, protein details: untagged (C-terminal intein-CBD removed, IMPACT).

The mark [1] stands for this setting: shift at >=1 uM PhaR, affinity lower than phaP1, probe letters rebuilt from the primers and the genome.

Regarding “AACGTGACATGCAACCTCAACAGCGCCGATCCGTCAGCGTGATCGCCGCCACATCCGACCCCTTTGACGGGATCGTTCGGCTCGTCCTCGACGCGGCGCGGTTCGGCTTCGGCCTCGACCAGGTCGCGATGACGACCTGCCCCGGTGGCGGCCGGACGATACGGATGGTCCTTGAAGTCCAGCCGTCGGCCGATTGCGCTGACATCGCGGAACGGCTGTCGCGCCATCCGGCGATCACGGACCTTCGCGTCGTGGGGCTCGCGCGCGGGGAATCCGGTCGGCCAGGCGTTGTCTCTGCAGAACCGGCAAACGAGCGGATGCTTCCATGAACAGCCCCACGCCACTTCGCTTTCACGTTC (double strand) [blr6331 promoter PCR fragment]”, the binding result under setting [1] was “binds”. On to “ATGTCTGGATTTGGGCTGTGCATCCGCTACATACTTCGGTTGAGGGCCGTCTCGTCAACTGGAAACGGACCGTTACAGAAAACGGTCTGTGCGGCCTTTTGCCCTTTTTCGGACCATCTTCGCAAGCACAGCTTTAAACCATGTTGCACTGCCAAGGAACACTCATGCGTTTGGCCCTTTACACCGGAATTATACTGGCTGGCGGTTACGCCTGCCTGACTCCTGCTCTCGCCGCCGACCCCACCGGCGACTGGCGGGTCGCCGACGGCGTCGCCAACATCCGTGTCGCCCAATGCAATGGCAGCATGTGGGGCGCGGTTTCCTGGGAAAAGCAGCCTGGCGGCCGTGACGAGAACAACCCGGATGTCTCGAAACAGAACAGGCCGACG (double strand) [blr3010 promoter PCR fragment]”, for which, under setting [1], the binding result is reported as “binds”. In the case of “CAGGGCGAGAGGTATTTTGGGAGGGGGGCATTTGCGCGCTCCAGATATGTAGTGTTCACTACAGATGTGGAGCTGGATACCGCAGCGCAAGATACTTATGTACCGTTTGCTAAGAAAATTGTAGCCACTTACCGCAAGCATTGGAAGGCGGAAGAGAAAATAAAGCTAGAACAAATAGATAGGATTTGACGTTAAGCTTCACGCAGAACGTGAATTCCGAGGAGACAGGCACATGGGCATGGGACGCCCCCGGGAATTCGACGCCGAAACGGCGTTGGACCAAGCGATGGAAGTGTTCTGGCGCCACGGCTATGAGGGCGCCACCATCGCGCAGCTCACCGAAGCCATGGGCATCAATCCGCCCAGCCTCTAC (double strand) [bll3872 promoter PCR fragment]”, the binding result under setting [1] is reported as “binds”. For the sequence “CTCATCGACAGCGCGATTGCGGCTGCGGATTGGGGGGCGGAGGACGCCGAAGAAGCTGCGCATCCGACCTGACCGATGCACGCTCGGCGGGCATCTCGCGAAGCGCCCGCTTGACAAGCCCTGCCCTTCGGCTGTAGGGACGCGGCCCATGATCAATTCTCGGACCAACCGCCGCGCAGCTTTCCGTCGTCGCACCCGCGACGATGATGGGTTGCGCCATGTCCGACGACGCCGCTGAAGCACTGAATTCAGCCAGTTTTCGAGAAGGCCGCACCCGCAAAGTGCGGCCTTCTTGCTTTTTGCGTCCATTTTCCACCCGCCCCTCGATAGGAGTTCGACATGACCACCGCCACCCATCCGTATGATGCGCTGATGGATATCAC (double strand) [blr4582 promoter PCR fragment]”, under setting [1], the binding result is on record as “binds”. For “GAACCTGAGCCGCTATTCTGGCTAAGGTGATGTTCTCAAACGGCTTTTGGCCGCTTGCGGAAGCTGAACACGTCCAGGGAATCAAGGTAGGGGTCCGCGGTTTCCAAAAGCTTAAGGAACCCTTGCGGGAAACCCCGGGAATCTCTTCGGTTTGGATCTAGTTTTTGTGCGACGCACAAGATTCTTGACTTTTTTGTGCGTTGCACTAATTGTGGGCAGAGTCAGGGAGCCGGGGCTTCCCGACGCGAGCCAGGGAAAAGGATTCCGAAATGTTCAAGGTTGAAGACTTTCAGAGCTACGGGAAAGAGCAGTTCG (double strand) [phaP1 promoter PCR fragment]”, the binding result (shift at 0.5 uM PhaR, probe letters rebuilt from the primers and the genome) was “binds”.

With “GATCTAGTTTTTGTGCGACGCACAAGATTCTTGACTTTTTTGTTAGTTTAACTAATTGTGGGCAGAG / CTCTGCCCACAATTAGTTAAACTGACAAAAAAGTCAAGAATCTTGTGCGTCGCACAAAAACTAGATC [phaP1 67 bp, proximal box mutated (5155_4)]”, the binding result (shift needs >=1 uM PhaR) is “binds more weakly”.

With “GATCTAGTTTTTGTTAGACTAACAAGATTCTTGACTTTTTTGTGCGTTGCACTAATTGTGGGCAGAG (double strand) [phaP1 67 bp, distal box mutated (5155_3)]”, the binding result (shift needs >=1 uM PhaR) is recorded as “binds more weakly”.

Regarding “GATCTAGTTTTTGTTAGACTAACAAGATTCTTGACTTTTTTGTTAGTTTAACTAATTGTGGGCAGAG / CTCTGCCCACAATTAGTTAAACTGACAAAAAAGTCAAGAATCTTGTTAGTCTAACAAAAACTAGATC [phaP1 67 bp, both boxes mutated (5155_5)]”, the binding result (weak binding even at 2 uM PhaR) is “binds more weakly”.

Regarding “GCCCGGACGAAGTAGAGACGGCTCCCGGCCGGCGGCCACAATCCCGCCGAAAGGCCATTGACGGACGCAAGACTCTCCCCCATAAGTCGCCGCCATGTTCACGACCACCAAACGCACGACCAAAACCACCACGGCCTTCGGGGCCCGGGGAGGCGTGCGCGCGTAGTCGTCGACTGAAACGCATCAGCTCTACCGAAGCCCCGCCCTCGATGGTCCGGGGCTTTTTTGTTGTCTAAAGCTCACAGCATGATCCGGAAAAGTGGAATCCGGTTTTCCGACGAGATCATGCTCAACTTGAATGGAGGAGAATGTGAGTAACGATCCCGTCGT (double strand) [blr4687 promoter PCR fragment]”, under setting [1], the binding result is reported as “binds”.

Consider “GCTGATGGAGGAGGTCGATCTCGTCATCCTCTGCCTGCCCGACGAGGCCGCCAAGGAGACGGTTGCGCTCATCGACAGCATGGGGCCGTCGGGCCCGAAGGTGCTGGACGCCTCGACCGCCTACCGGGGTTGCGCCCGACTGGGCCTACGGCTTTCCGGAACTGACGCCGGATCAGCCCGCCAAGATCAAGGCCGCGAAGAAGGTCTCCAATCCCGGCTGCTATCCGACCGGCGCGATCGCGCTCTTGCGGCCGATCGTCGATGCCGGGCTGTTGCCATCAGACTATCCCGTCACGGTGAAC (double strand) [blr4358 promoter PCR fragment]”, for which the binding result under setting [1] is on record as “binds”. On the same count and under the same terms, under “GGCAGCTCTTGTCGGATTTACGACATTGCGGCGGCAATCGGACATACACATGCGGAATTCGGAGCGCGCGGATCCATGGCTGAAAACCAACACCGTGAGTGCTCGTCTACGCCGACGTCGTCTTGATGAACCTTCAGTATGCACCTGCGTTGCTCCAAAAAGGCGAGACGCCGGCGGCCGCCCCGCAAGAGATGCTTCGCATTTTTGAGACCATTACCTCCGAGCATGATGTCGGGTTGTTCCGCCGTTTCGAAATTATGCGCTACCGGCATGTCAAGCGCGGTATCCCGATTCGGACGTGACAGTTGTCGAGGATCGAGTGTTGGGCCCATATGCCTTCTCGATCTGGTCCAGCGACTGAGCGATCAGGAAACTCTTGATGCCGTAGCC (double strand) [blr2131 promoter PCR fragment]” stands “binds”.
